Data taken from publication doi:10.1101/2020.09.29.319483.
These are yes or no findings as the source states them, for the method shown. Binding seen in cells or lysates may run through a third protein. Some binding calls cover weakened binding; strength is not graded here.

Sequences of proteins named here, by UniProt entry; tags and fusion partners are left off. Residues count along the entry.
UniProt P43220, residues 24-463: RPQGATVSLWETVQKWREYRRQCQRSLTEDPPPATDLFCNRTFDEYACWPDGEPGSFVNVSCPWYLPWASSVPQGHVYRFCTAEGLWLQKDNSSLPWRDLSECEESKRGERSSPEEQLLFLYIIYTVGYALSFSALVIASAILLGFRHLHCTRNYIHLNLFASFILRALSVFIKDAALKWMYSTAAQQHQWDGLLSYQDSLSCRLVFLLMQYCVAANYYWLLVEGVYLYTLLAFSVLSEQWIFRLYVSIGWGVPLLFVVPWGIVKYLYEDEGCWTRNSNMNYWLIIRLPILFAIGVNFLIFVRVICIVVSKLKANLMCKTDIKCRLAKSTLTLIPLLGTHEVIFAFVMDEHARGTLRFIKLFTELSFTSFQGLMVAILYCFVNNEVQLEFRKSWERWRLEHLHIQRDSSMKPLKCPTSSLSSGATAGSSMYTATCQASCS
UniProt P32121: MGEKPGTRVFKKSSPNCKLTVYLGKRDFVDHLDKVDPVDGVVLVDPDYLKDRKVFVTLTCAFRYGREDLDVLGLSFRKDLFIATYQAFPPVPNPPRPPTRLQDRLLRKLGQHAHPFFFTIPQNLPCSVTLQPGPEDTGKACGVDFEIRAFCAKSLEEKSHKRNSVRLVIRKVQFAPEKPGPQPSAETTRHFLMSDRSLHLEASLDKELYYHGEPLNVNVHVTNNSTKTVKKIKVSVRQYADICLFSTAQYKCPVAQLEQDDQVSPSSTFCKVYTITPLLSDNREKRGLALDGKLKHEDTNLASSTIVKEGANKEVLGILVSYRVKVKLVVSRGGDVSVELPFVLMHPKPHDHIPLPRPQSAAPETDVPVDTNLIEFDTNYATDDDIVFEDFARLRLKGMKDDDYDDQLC
UniProt P49407: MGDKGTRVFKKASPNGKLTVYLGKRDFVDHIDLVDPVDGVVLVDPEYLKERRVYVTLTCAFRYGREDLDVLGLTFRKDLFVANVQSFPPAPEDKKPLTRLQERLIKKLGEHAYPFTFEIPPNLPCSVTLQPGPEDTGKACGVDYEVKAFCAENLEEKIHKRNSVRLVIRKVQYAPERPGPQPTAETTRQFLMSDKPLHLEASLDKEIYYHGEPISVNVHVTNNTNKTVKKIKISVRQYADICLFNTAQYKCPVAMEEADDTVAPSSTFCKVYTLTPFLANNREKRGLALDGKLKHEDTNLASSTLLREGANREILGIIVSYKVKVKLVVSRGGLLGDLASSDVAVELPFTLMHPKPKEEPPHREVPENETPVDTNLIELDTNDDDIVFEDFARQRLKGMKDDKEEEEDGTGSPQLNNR

Target: human glucagon-like peptide-1 receptor as used in the β-arrestin recruitment (PathHunter) assays (human) (UniProt P43220)
Test: split reporter

binding	Substance
binds	β-arrestin-2 (from UniProt P32121 1-409)
binds	β-arrestin-1 (from UniProt P49407 1-418)
